Test results as given in PMC3973678.
For at least one entry, the source does not settle the construct or the ends of the probe. Results from cells or extracts need not show a direct contact. For part of these data: Negatives hold for the conditions tested. For part of these data: At least one verdict rests on a figure or table, not on a statement of the authors.

Key:
[1] = molecular target: PU/ER(T) fusion (PU.1 fused to modified estrogen receptor ligand binding domain) G525R (UniProt P17433); assay: EMSA, supershift; details: 4-hydroxytamoxifen 100 nM; 5 ug nuclear extract, 6% native acrylamide gel, 0.5X TBE, chemiluminescent detection; binding buffer, pH and temperature not given; protein in an extract; protein details: ER LBD fusion; label: 5' biotin
[2] = molecular target: PU/ER(T) fusion (PU.1 fused to modified estrogen receptor ligand binding domain) G525R (UniProt P17433); assay: EMSA; details: 4-hydroxytamoxifen, binding completely abolished by CpG methylation; 5-methylcytosine at CpG dinucleotides (in vitro M.SssI + SAM); 5 ug nuclear extract, 6% native acrylamide gel, 0.5X TBE, chemiluminescent detection; binding buffer, pH and temperature not given; protein in an extract; protein details: ER LBD fusion; label: 5' biotin
[3] = molecular target: PU/ER(T) fusion (PU.1 fused to modified estrogen receptor ligand binding domain) G525R (UniProt P17433); assay: competition with a labelled probe; details: 5, 15, 25 and 100 pmol unlabelled oligo against labelled N1, extract source not stated for panel D; 5 ug nuclear extract, 6% native acrylamide gel, 0.5X TBE, chemiluminescent detection; binding buffer, pH and temperature not given; protein in an extract; protein details: ER LBD fusion

CGCGCAGTGGGGGCTGCGGGAAGGCGGGGAGAAGAAAGGCAGGGGGCGGGGCCTGGCGGCGGAGCCCCGCGCGCCG (double strand) [KLF4 promoter 76 bp oligo (-118/-113 PU.1 element)]
binding result [1]: binds

CGCGCAGTGGGGGCTGCGGGAAGGCGGGGAGAAGAAAGGCAGGGGGCGGGGCCTGGCGGCGGAGCCCCGCGCGCCG (double strand) [KLF4 promoter 76 bp oligo, M.SssI methylated]
binding result [2]: no binding

CGCGCAGTGGGGGCTGCGGGAAGGCGGGGAGAAGAAAGGCAGGGGGCGGGGCCTGGCGGCGGAGCCCCGCGCGCCG (double strand) [unlabelled KLF4 promoter oligo (cold competitor)]
binding result [3]: binds
